Among the data in article PMC11265398 are binding values, retold here.

Sequences of proteins named here, by UniProt entry; tags and fusion partners are left off. A change or cut given only in a name is not applied to a line headed by its entry.
UniProt P03204: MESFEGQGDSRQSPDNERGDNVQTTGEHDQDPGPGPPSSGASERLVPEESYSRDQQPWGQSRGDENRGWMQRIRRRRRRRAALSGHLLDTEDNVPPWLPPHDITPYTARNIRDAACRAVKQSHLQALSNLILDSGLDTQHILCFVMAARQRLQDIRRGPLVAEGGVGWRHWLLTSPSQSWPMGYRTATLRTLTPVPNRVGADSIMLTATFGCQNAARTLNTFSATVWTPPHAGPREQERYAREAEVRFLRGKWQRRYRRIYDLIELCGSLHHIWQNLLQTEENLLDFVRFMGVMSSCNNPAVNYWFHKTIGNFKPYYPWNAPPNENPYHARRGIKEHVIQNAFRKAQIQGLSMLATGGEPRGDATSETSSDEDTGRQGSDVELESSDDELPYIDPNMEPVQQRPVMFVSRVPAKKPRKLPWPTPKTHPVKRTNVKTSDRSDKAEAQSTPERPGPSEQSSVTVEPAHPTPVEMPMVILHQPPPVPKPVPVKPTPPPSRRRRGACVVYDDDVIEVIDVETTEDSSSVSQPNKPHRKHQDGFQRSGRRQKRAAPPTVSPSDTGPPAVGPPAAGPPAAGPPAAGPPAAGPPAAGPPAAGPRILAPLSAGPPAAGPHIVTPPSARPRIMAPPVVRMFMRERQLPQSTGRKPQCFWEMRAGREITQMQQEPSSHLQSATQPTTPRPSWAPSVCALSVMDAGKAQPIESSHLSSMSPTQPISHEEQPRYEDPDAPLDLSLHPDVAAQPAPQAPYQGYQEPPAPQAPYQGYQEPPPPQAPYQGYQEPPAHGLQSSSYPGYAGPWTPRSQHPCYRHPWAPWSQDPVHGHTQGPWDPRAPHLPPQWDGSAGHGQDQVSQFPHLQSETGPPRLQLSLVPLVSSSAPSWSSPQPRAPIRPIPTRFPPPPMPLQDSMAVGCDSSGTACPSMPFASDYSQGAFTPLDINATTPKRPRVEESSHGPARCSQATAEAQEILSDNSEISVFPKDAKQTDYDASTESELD

These are yes or no findings as the source states them, for the method shown. In cells and extracts the contact can be indirect. Some binding calls cover weakened binding; strength is not graded here. For part of these data: Tags and fused reporters may be left off the sequences shown.

The target of one test is T1, endogenous FBXO11 of B cells (human (endogenous in BJAB7 and LCL1)) (UniProt Q86XK2).
T1 sequence: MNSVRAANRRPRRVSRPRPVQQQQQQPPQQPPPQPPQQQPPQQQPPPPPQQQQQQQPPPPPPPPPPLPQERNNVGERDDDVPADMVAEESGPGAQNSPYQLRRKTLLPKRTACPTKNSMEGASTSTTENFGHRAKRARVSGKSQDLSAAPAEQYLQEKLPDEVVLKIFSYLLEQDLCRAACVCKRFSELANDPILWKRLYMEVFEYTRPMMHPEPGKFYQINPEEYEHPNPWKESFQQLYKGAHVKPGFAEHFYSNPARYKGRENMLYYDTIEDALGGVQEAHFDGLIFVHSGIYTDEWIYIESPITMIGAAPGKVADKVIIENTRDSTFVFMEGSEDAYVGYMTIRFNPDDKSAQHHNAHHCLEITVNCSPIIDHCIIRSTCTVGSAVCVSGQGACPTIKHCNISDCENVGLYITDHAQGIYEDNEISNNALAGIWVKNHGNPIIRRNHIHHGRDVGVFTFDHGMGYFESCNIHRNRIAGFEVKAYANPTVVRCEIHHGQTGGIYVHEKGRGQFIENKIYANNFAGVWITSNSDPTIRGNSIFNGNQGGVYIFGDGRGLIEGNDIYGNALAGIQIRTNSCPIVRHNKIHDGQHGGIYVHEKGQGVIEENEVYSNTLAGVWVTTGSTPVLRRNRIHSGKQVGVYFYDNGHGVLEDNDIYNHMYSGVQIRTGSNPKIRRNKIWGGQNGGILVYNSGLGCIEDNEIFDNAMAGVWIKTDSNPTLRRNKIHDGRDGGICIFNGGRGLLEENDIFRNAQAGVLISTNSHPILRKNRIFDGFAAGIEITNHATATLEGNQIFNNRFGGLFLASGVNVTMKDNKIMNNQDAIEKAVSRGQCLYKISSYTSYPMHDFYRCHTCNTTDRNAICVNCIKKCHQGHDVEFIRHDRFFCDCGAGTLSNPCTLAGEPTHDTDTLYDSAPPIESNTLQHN
Description: co-IP; sixty million BJAB, BJAB7 and LCL1 cells lysed; immunoprecipitation with 2 µg anti-FBXO11 antibody; western blot. For orientation: Immunoblotting shows a protein as a band on a membrane.
For “EBNA3C stably expressed in BJAB7 cells (from UniProt P03204 1-992)”, the binding result is listed as “binds”.

Regarding “EBNA3C of EBV-transformed LCL1 cells (from UniProt P03204 1-992)”, the binding result is “binds”.

In a further test the target is T2, Flag-tagged full-length FBXO11 (UniProt Q86XK2).
T2 sequence: T1 sequence
The experiment in a line: co-IP; ten million Saos-2 cells co-transfected with Flag-FBXO11 and Myc-EBNA3C (full length or truncations); lysed 48 hours post-transfection; immunoprecipitation with 2 µg anti-Flag antibody; western blot with antibodies against Flag and Myc.
Consider “Myc-tagged EBNA3C (50-365 aa) (from UniProt P03204 50-365) (domain or fragment)”, for which the binding result is reported as “binds”.

In the case of “Myc-tagged full-length EBNA3C (1-992 aa) (from UniProt P03204 1-992)”, the binding entry is recorded as “binds”.

Consider “Myc-tagged EBNA3C (1-200 aa) (from UniProt P03204 1-200) (domain or fragment)”, for which the binding entry is “binds”.

As to “Myc-tagged EBNA3C (1-365 aa) (from UniProt P03204 1-365) (domain or fragment)”, the binding entry is listed as “binds”.
